Compound in the assay: Nc1ncnc2c1ncn2[C@@H]1O[C@H](COP(=O)(O)OP(=O)(O)OP(=O)(O)O)[C@@H](O)[C@H]1O [adenosine triphosphate]
The assay is described as follows: NP40-soluble protein abundance relative to vehicle (solubility fold change) (ratio); higher = more soluble protein in presence of ATP. In a few lines:
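Data come from three independent experiments in which Dounce-homogenised Jurkat crude lysate was treated at eight concentrations from 0.1 to 10 mM. Treatment ran 10 min at room temperature and then 3 min at 37 °C, after which 0.8% NP40 and benzonase were added for 60 min at 4 °C before ultracentrifugation. The supernatant underwent TMT labelling and LC-MS/MS, and vsn-normalised intensities were expressed as fold change against the detergent-processed vehicle in each replicate.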

Chains of the proteins cited; added tags and fusions are not shown. Lines headed by an entry give the natural chain unless they say otherwise; changes in a name come on top.
UniProt P62316, whole entry: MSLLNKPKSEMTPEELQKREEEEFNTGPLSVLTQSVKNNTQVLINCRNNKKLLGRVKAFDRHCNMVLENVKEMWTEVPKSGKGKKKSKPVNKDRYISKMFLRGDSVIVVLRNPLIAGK
UniProt P53680: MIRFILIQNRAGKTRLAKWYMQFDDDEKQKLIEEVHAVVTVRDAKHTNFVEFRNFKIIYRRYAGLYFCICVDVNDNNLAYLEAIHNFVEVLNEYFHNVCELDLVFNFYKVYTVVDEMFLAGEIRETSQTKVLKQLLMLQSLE
UniProt P52429: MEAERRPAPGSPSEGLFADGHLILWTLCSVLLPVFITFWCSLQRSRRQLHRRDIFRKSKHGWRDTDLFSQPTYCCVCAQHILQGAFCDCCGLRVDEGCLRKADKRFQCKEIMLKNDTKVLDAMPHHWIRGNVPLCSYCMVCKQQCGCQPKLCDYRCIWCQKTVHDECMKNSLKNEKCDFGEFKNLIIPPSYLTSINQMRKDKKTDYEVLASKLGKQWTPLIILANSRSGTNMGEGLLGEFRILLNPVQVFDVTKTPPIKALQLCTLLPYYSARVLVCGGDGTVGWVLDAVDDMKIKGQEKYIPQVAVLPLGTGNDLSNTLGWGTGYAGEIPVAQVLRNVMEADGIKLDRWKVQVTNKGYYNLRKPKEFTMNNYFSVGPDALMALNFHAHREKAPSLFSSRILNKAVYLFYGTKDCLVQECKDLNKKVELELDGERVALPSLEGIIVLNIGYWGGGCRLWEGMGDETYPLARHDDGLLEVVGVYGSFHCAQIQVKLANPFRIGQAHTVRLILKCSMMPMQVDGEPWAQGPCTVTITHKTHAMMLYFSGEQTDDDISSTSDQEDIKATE
UniProt Q9BQD3: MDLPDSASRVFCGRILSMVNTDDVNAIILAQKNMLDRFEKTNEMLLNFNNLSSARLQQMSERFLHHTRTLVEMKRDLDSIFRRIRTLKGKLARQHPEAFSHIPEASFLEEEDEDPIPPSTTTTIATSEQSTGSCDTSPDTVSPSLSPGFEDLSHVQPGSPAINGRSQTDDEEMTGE
UniProt P15735: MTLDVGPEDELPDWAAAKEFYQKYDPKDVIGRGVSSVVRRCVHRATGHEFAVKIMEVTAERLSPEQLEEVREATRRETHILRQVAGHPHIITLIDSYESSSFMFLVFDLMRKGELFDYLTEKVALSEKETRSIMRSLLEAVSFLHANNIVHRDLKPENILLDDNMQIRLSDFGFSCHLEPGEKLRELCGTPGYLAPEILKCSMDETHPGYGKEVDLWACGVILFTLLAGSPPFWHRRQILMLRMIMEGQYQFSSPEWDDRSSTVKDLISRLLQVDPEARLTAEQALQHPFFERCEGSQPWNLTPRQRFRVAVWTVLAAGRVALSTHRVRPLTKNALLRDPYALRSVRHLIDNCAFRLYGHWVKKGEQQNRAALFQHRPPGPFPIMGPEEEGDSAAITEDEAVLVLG
UniProt Q03164, whole entry: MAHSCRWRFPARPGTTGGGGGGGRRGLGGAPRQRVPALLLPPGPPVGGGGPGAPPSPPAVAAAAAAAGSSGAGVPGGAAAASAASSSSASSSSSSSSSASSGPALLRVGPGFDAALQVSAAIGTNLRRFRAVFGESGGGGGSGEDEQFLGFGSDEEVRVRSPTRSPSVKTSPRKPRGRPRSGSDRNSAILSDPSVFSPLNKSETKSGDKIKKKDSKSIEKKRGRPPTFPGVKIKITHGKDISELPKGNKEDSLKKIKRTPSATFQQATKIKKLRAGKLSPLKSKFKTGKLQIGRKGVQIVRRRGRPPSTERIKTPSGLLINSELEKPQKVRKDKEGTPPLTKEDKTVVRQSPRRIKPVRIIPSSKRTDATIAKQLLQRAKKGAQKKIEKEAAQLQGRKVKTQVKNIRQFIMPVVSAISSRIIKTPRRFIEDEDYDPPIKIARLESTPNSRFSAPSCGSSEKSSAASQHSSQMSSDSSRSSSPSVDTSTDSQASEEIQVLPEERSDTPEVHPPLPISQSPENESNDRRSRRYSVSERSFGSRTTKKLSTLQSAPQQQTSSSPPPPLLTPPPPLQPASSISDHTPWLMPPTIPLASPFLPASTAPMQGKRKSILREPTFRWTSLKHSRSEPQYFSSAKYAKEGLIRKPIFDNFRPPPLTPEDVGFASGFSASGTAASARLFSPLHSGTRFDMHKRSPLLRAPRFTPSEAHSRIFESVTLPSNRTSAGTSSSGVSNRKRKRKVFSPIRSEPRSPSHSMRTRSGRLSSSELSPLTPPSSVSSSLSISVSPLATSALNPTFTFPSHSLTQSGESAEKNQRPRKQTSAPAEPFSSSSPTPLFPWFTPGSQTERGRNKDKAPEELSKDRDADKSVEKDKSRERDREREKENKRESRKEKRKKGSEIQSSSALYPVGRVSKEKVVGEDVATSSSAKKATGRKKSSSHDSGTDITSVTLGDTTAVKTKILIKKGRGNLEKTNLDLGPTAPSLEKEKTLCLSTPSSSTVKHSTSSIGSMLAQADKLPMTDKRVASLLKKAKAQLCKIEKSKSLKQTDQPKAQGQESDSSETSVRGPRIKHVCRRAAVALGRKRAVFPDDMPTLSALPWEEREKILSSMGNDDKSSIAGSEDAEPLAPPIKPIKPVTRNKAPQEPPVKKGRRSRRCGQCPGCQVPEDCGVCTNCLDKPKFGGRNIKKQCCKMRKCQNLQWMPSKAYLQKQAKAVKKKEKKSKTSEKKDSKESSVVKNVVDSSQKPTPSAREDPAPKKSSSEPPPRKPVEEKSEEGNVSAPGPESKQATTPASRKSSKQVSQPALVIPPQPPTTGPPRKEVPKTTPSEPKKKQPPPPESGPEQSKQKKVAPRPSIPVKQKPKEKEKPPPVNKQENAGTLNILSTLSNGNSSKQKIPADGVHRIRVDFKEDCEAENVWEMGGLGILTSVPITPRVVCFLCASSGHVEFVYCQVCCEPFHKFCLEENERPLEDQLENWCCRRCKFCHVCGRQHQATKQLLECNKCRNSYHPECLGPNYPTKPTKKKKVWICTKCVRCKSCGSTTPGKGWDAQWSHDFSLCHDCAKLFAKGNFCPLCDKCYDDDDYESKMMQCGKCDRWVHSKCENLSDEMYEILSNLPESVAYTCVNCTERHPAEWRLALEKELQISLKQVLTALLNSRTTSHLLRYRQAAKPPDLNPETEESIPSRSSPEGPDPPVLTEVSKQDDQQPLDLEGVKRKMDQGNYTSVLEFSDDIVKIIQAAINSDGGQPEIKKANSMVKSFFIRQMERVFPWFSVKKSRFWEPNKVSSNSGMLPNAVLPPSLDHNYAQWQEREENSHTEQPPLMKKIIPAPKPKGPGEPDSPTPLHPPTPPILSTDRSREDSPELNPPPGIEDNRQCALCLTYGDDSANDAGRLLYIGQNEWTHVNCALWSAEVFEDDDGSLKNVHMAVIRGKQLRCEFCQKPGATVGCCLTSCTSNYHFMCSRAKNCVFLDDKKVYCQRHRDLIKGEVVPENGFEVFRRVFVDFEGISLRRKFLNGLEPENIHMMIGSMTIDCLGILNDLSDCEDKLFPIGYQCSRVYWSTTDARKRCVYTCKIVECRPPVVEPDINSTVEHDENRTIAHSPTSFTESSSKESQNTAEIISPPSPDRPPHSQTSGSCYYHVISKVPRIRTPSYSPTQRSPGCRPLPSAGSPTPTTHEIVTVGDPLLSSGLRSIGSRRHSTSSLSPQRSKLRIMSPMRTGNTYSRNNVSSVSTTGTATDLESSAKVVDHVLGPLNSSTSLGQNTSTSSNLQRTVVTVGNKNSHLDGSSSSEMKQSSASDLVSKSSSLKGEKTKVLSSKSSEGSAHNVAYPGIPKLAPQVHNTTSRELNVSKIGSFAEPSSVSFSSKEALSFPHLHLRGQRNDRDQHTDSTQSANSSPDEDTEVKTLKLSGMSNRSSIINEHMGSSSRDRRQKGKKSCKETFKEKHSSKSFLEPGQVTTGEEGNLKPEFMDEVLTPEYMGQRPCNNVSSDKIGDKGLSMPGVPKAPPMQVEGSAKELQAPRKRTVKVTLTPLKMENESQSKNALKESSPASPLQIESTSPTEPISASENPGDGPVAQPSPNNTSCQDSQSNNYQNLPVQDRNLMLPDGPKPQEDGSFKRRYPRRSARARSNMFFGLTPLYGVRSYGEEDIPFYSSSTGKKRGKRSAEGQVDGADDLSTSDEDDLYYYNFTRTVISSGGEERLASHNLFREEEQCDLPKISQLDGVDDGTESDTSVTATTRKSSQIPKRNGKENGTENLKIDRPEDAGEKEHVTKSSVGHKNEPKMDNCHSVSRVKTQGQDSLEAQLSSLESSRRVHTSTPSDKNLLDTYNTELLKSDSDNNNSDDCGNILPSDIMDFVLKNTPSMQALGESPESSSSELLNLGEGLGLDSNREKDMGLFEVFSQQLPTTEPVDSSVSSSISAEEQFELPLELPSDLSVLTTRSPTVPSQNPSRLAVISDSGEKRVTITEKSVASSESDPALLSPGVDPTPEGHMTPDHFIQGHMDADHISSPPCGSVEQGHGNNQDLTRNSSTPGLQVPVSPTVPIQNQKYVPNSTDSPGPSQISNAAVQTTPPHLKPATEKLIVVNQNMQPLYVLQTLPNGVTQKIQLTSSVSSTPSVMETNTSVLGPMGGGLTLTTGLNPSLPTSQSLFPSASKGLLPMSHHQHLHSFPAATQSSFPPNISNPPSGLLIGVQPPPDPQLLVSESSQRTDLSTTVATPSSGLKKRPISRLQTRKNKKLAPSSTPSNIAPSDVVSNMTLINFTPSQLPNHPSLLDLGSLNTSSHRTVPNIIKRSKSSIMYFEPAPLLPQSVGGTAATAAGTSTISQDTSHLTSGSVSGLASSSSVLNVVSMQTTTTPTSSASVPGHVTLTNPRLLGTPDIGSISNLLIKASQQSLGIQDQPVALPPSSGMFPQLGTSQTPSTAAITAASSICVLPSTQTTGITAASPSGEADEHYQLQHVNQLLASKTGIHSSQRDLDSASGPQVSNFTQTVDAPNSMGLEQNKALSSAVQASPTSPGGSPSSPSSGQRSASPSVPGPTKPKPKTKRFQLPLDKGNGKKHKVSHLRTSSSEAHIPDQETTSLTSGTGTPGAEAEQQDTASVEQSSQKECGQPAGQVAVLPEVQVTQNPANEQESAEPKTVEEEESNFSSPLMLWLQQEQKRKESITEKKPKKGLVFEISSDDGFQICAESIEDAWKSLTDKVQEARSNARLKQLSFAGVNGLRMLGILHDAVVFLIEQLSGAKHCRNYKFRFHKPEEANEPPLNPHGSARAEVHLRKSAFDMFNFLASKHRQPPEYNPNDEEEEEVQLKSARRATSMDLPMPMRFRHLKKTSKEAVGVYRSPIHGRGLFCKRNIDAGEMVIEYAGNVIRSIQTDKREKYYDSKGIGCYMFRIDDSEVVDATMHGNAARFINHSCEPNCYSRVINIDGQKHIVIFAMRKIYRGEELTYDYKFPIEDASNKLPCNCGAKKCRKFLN
UniProt Q15027: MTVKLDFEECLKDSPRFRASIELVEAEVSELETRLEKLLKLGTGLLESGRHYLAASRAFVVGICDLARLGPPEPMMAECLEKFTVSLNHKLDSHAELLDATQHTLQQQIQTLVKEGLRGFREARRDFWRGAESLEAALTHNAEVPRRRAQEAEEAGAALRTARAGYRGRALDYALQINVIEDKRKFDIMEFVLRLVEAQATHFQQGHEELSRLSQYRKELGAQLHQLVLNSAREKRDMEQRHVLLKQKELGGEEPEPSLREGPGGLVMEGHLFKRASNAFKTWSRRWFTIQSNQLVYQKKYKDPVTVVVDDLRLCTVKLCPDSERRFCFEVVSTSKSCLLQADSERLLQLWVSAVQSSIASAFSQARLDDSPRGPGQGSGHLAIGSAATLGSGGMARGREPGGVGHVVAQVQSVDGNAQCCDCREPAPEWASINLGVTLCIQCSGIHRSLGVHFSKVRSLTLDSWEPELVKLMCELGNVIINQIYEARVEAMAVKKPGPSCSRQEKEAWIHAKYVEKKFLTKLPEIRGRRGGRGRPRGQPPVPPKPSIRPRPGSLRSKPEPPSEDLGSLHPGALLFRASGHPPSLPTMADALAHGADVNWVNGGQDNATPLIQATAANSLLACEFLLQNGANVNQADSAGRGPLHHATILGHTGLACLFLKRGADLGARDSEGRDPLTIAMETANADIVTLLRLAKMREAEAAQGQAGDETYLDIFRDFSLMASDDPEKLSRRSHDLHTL
UniProt P48730: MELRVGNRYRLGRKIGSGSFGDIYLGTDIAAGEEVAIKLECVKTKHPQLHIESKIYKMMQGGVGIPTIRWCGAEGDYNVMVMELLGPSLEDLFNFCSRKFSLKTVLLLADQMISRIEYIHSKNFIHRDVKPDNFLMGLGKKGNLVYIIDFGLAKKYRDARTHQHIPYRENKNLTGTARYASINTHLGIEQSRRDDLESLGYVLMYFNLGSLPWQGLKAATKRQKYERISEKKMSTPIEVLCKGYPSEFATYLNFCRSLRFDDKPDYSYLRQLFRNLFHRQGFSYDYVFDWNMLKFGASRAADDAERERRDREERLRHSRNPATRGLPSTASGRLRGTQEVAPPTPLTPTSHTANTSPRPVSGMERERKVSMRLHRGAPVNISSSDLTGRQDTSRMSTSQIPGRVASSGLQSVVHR

± gives the standard deviation of the averaged measurements. The list shows a part of the results, in another mix than the full data.

On to “K7EJB5 and related entries (UniProt P62316)”, for which the NP40-soluble protein abundance reads like this: (concentration: 1mM) 1.1 ± 0.11; (concentration: 2mM) 1.11 ± 0.099; (concentration: 4mM) 1.18 ± 0.12; (concentration: 6mM) 1.3 ± 0.12; (concentration: 8mM) 1.34 ± 0.097; (concentration: 10mM) 1.32 ± 0.1.
As for “M0QYZ2 and related entries (UniProt P53680)”, the NP40-soluble protein abundance reads like this: (concentration: 1mM) 1.07 ± 0.14; (concentration: 2mM) 1.1 ± 0.056; (concentration: 4mM) 1.05 ± 0.046; (concentration: 6mM) 1.02 ± 0.14; (concentration: 8mM) 1.13 ± 0.056; (concentration: 10mM) 1.14 ± 0.022.
In the case of “J3QSH4 and related entries (UniProt Q14119)”, the NP40-soluble protein abundance reads like this: (concentration: 1mM) 0.992 ± 0.053; (concentration: 2mM) 0.98 ± 0.034; (concentration: 4mM) 0.918 ± 0.038; (concentration: 6mM) 0.96 ± 0.083; (concentration: 8mM) 0.894 ± 0.049; (concentration: 10mM) 0.896 ± 0.024.
For “I3L112 and related entries (UniProt P52429)”, the NP40-soluble protein abundance by setting is: (concentration: 1mM) 1.04 ± 0.075; (concentration: 2mM) 1.052 ± 0.0071; (concentration: 4mM) 1.15 ± 0.1; (concentration: 6mM) 1.01 ± 0.036; (concentration: 8mM) 1.16 ± 0.18; (concentration: 10mM) 1.19 ± 0.17.
“H7C5I3 and related entries (UniProt P35236)”: the NP40-soluble protein abundance worked out at 0.991 ± 0.05 (concentration: 1mM); 0.985 ± 0.041 (concentration: 2mM); 1 ± 0.013 (concentration: 4mM); 0.952 ± 0.053 (concentration: 6mM); 0.966 ± 0.035 (concentration: 8mM); 0.961 ± 0.02 (concentration: 10mM).
As to “M0QY77 and related entries (UniProt Q9BQD3)”, the NP40-soluble protein abundance worked out at 0.872 ± 0.031 (concentration: 1mM); 0.951 ± 0.057 (concentration: 2mM); 0.909 ± 0.057 (concentration: 4mM); 0.792 ± 0.029 (concentration: 6mM); 0.843 ± 0.061 (concentration: 8mM); 0.838 ± 0.093 (concentration: 10mM).
Regarding “H3BMM9 and related entries (UniProt Q15287)”, the NP40-soluble protein abundance is, setting by setting: (concentration: 1mM) 1.4 ± 0.16; (concentration: 2mM) 1.3 ± 0.19; (concentration: 4mM) 1.23 ± 0.19; (concentration: 6mM) 1.19 ± 0.26; (concentration: 8mM) 0.969 ± 0.18; (concentration: 10mM) 1.09 ± 0.19.
Regarding “K7ERT1 and related entries (UniProt O00273)”, the NP40-soluble protein abundance by setting is: (concentration: 1mM) 0.987 ± 0.053; (concentration: 2mM) 0.98 ± 0.026; (concentration: 4mM) 0.981 ± 0.014; (concentration: 6mM) 1.02 ± 0.018; (concentration: 8mM) 0.955 ± 0.016; (concentration: 10mM) 0.951 ± 0.012.
With “J3KNN3 and related entries (UniProt P15735)”, the NP40-soluble protein abundance runs as follows: (concentration: 1mM) 1.02 ± 0.1; (concentration: 2mM) 0.941 ± 0.084; (concentration: 4mM) 0.991 ± 0.053; (concentration: 6mM) 0.886 ± 0.087; (concentration: 8mM) 0.98 ± 0.13; (concentration: 10mM) 0.923 ± 0.12.
On to “H7C0G7 and related entries (UniProt Q9H9Q4)”, for which the NP40-soluble protein abundance stood at 1.02 ± 0.13 (concentration: 1mM); 0.948 ± 0.085 (concentration: 2mM); 0.941 ± 0.096 (concentration: 4mM); 0.984 ± 0.15 (concentration: 6mM); 0.865 ± 0.067 (concentration: 8mM); 0.944 ± 0.096 (concentration: 10mM).
With “H0YEU4 and related entries (UniProt Q03164)”, the NP40-soluble protein abundance was determined as 1.09 ± 0.024 (concentration: 1mM); 1.13 ± 0.031 (concentration: 2mM); 1.16 ± 0.05 (concentration: 4mM); 1.2 ± 0.086 (concentration: 6mM); 1.18 ± 0.05 (concentration: 8mM); 1.23 ± 0.042 (concentration: 10mM).
Regarding “H3BPZ0 and related entries (UniProt Q6PCT2)”, the NP40-soluble protein abundance was found to be 1.026 ± 0.0099 (concentration: 1mM); 1.04 ± 0.019 (concentration: 2mM); 1.06 ± 0.075 (concentration: 4mM); 1.08 ± 0.032 (concentration: 6mM); 1.01 ± 0.035 (concentration: 8mM); 1.07 ± 0.035 (concentration: 10mM).
For the target “I3L0K9 and related entries (UniProt Q15027)”, the NP40-soluble protein abundance is, setting by setting: (concentration: 1mM) 1.03 ± 0.095; (concentration: 2mM) 1.03 ± 0.089; (concentration: 4mM) 1.01 ± 0.057; (concentration: 6mM) 0.959 ± 0.11; (concentration: 8mM) 1.01 ± 0.036; (concentration: 10mM) 1.01 ± 0.061.
For “K7EP59 and related entries (UniProt Q15831)”, the NP40-soluble protein abundance by setting is: (concentration: 1mM) 0.986 ± 0.018; (concentration: 2mM) 0.942 ± 0.083; (concentration: 4mM) 1.01 ± 0.054; (concentration: 6mM) 0.998 ± 0.026; (concentration: 8mM) 0.975 ± 0.1; (concentration: 10mM) 0.979 ± 0.061.
For “H7BYT1 and related entries (UniProt P48730)”, the NP40-soluble protein abundance turned out to be 1.03 ± 0.071 (concentration: 1mM); 1.01 ± 0.18 (concentration: 2mM); 1 ± 0.21 (concentration: 4mM); 1.07 ± 0.23 (concentration: 6mM); 0.961 ± 0.25 (concentration: 8mM); 0.997 ± 0.25 (concentration: 10mM).
